Results reported in publication PMC10333084.
No constants are given. Whether binding was seen depends on the method and setting. Binding seen in cells or lysates may run through a third protein. Here binding means that the protein was enriched with, or labelled near, the bait; the list need not be complete.

Protein sequences, listed by entry. Tags and fused reporters are not part of them.
UniProt Q8TAQ2: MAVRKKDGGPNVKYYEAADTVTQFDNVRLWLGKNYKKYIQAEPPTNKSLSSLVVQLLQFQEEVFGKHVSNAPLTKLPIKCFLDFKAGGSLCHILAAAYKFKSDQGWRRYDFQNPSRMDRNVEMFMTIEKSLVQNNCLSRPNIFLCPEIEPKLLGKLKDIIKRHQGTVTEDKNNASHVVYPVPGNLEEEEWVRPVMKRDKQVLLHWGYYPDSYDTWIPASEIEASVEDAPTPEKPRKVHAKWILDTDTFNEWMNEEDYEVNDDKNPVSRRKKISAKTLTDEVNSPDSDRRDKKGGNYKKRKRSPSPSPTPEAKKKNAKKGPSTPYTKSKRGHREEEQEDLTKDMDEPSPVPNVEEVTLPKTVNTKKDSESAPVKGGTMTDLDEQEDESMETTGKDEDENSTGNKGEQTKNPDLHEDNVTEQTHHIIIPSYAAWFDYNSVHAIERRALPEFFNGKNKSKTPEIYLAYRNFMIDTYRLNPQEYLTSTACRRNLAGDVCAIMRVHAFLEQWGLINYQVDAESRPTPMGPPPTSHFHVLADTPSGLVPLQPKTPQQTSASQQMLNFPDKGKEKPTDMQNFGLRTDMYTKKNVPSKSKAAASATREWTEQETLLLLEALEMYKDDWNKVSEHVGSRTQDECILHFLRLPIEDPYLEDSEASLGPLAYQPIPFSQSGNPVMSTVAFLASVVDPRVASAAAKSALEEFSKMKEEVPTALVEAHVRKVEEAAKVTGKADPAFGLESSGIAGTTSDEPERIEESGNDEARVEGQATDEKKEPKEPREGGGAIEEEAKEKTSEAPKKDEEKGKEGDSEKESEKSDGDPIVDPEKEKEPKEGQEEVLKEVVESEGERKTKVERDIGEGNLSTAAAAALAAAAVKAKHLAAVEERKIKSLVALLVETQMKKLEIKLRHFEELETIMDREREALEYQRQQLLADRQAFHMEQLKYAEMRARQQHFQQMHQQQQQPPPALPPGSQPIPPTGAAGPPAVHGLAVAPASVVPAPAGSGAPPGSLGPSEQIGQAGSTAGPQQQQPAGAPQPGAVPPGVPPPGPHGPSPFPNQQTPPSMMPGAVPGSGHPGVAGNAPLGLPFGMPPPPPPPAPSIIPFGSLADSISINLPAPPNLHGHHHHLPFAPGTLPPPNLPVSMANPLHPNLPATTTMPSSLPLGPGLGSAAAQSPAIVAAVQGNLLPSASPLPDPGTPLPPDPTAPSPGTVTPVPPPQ

Target: T1, F-box only protein 28 (FBXO28) (UniProt Q9NVF7)
T1 sequence: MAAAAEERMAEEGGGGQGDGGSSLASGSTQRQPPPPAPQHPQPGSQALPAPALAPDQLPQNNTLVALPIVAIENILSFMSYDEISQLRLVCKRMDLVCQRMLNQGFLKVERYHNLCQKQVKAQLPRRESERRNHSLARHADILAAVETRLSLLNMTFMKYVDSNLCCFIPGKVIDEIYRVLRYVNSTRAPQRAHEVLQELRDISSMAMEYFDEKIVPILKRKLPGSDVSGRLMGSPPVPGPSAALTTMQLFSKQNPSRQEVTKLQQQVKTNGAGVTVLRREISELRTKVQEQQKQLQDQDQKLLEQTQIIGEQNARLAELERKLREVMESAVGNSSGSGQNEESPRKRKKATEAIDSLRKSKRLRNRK
Assay: affinity purification with mass spectrometry; anti-FBXO28 immunoprecipitates from lysates of BxPC-3 cells with stable FBXO28 overexpression and control cells; SDS-PAGE, band staining, LC-MS/MS

SMARCC2 (from UniProt Q8TAQ2 1-1214) was tested, and the binding was “binds”.
